The values that follow come from patent US20210380678A1.

Chains of the proteins cited; added tags and fusions are not shown. Lines headed by an entry give the natural chain unless they say otherwise; changes in a name come on top.
UniProt Q9ULT6: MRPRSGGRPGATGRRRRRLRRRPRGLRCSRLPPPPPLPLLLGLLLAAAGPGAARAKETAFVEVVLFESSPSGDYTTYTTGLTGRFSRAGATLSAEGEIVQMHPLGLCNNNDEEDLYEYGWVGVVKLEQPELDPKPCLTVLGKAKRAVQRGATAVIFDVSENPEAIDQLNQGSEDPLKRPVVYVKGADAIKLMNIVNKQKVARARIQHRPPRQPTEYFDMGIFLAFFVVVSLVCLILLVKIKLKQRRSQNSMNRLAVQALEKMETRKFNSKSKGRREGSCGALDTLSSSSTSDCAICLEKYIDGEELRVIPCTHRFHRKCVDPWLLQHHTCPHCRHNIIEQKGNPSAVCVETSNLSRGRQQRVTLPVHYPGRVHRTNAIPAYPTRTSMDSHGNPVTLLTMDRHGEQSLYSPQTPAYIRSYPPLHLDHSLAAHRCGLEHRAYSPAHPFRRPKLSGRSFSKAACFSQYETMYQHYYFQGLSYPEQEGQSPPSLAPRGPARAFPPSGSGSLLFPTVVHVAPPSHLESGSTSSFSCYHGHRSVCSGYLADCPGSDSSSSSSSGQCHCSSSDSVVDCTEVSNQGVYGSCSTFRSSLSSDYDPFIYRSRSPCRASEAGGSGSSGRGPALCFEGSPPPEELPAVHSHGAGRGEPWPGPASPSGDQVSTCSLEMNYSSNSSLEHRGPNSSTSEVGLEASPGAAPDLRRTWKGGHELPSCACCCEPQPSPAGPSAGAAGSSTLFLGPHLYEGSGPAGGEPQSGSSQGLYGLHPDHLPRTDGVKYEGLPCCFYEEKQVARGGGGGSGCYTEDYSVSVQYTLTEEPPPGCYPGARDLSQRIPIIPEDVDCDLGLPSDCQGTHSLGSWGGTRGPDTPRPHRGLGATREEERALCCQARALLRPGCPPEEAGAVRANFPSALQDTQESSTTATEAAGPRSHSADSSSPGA

Results are given in words; binding and its absence hold for the method and conditions named. Some binding calls cover weakened binding; strength is not graded here. For some assays here: Sequences can lack the tags named with a protein.

Test [1] deals with human ZNRF3 extracellular domain (hZNRF3 ECD) (human) (UniProt Q9ULT6). The experiment in a line: ELISA (binding specificity). Background: ELISA stands for enzyme-linked immunosorbent assay.
For test [2], the target named is T1, Fc portion of human IgG1-fused LGR5-ECD (R&D systems) (human) (UniProt O75473).
T1 sequence (looked up): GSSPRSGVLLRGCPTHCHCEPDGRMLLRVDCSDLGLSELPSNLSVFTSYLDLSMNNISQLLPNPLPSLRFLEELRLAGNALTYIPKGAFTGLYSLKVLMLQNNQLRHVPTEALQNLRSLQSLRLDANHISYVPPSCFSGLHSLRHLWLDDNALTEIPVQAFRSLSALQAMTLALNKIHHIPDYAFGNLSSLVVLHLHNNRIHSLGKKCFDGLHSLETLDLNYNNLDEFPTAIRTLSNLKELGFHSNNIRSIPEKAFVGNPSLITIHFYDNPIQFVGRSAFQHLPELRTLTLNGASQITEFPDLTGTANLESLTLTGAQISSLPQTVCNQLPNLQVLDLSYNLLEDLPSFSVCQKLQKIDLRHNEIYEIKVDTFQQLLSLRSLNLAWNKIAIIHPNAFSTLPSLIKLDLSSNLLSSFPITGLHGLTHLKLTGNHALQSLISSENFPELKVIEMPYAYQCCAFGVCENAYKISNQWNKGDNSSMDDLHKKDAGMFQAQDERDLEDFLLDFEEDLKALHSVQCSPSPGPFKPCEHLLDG
The experiment in a line: BLI (Octet), LGR5-ECD-Fc on AHC sensor.

B1: 028S-A09 (antibody, V domains shown)
VH: QVQLVQSGAEVKKPGASVKVSCKASGYRFTSYYLHWVRQAPGQGLEWMGWMNPKSGGTNYAQKFQGRVTMTRDTSTSTVYMELSSLRSEDTAVYYCARGGRSYGYWYFDLWGRGTLVTVSS
VL: EIVMTQSPATLSVSPGERATLSCRASQSVDSSYLAWYQQKPGQAPRLLIYAASARAAGIPARFSGSGSGTEFTLTISSLQSEDFAVYYCQQYYRSPPTFGQGTRLEIK
Consider B1, for which the binding result in test [1] is on record as “binds”.

B2: αGFP-RSPO2-WT (anti-GFP, RSPO2 wild type) (protein)
chain: QVQLVESGGGLVQPGGSLRLSCAASGFTFSRYGMHWVRQAPGKGLEWVSGISSIGSNTYYADSVKGRFTISRDNSKNTLYLQMNSLRAEDTAVYYCARWYKTYIDVWGQGTLVTVSSGGGGSGGGGSGGGGSDIELTQPPSVSVAPGQTARISCSGDNLGKKYVYWYQQKPGQAPVLVIYGDDERPSGIPERFSGSNSGNTATLTISGTQAEDEADYYCASYDSSHILIVFGGGTKLTVLGSGGSNPICKGCLSCSKDNGCSRCQQKLFFFLRREGMRQYGECLHSCPSGYYGHRAPDMNRCARCRIENCDSCFSKDFCTKCKVGFYLHRGRCFDECPDGFAPLEETMECVEGGDYKDDDDKGSHHHHHHHH
As for B2, the binding entry in test [2] is recorded as “binds”.
